From PubChem BioAssay AID256 (DTP/NCI, 2004) come the findings set out here.

For the assay, the system named is CD2F1 mice, L1210 leukemia ip, survival T/C. The assay can be described thus: NCI In Vivo Anticancer Drug Screen. Data for tumor model L1210 Leukemia (intraperitoneal) in CD2F1 (CDF1) mice. Conditions: higher T/C = longer survival. A digest of the protocol:
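Read-out first: treated-group measurement over vehicle-control measurement, expressed as a ratio. Animals bore a transplanted tumor line and were dosed with compound or vehicle.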

[1] abbreviates: T/C endpoint: mean survival time, dose: 200.0 mg/kg/injection, schedule: Q01DX009 (ip), vehicle: saline with Tween-80.
[2] abbreviates: T/C endpoint: mean survival time, dose: 400.0 mg/kg/injection, schedule: Q01DX001 (ip), vehicle: saline with Tween-80.
The mark [3] stands for this setting: T/C endpoint: mean survival time, dose: 200.0 mg/kg/injection, schedule: Q01DX001 (ip), vehicle: saline with Tween-80.
[4] abbreviates: T/C endpoint: median survival time, dose: 50.0 mg/kg/injection, schedule: Q01DX009 (ip), vehicle: saline with Tween-80.
The mark [5] stands for this setting: T/C endpoint: mean survival time, dose: 400.0 mg/kg/injection, schedule: Q04DX002 (ip), vehicle: saline with Tween-80.
The mark [6] stands for this setting: T/C endpoint: mean survival time, dose: 200.0 mg/kg/injection, schedule: Q04DX003 (ip), vehicle: saline with Tween-80.
Where [7] appears, read: T/C endpoint: mean survival time, dose: 400.0 mg/kg/injection, schedule: Q04DX003 (ip), vehicle: saline with Tween-80.
Where [8] appears, read: T/C endpoint: mean survival time, dose: 50.0 mg/kg/injection, schedule: Q01DX009 (ip), vehicle: saline with Tween-80.
[9] abbreviates: T/C endpoint: mean survival time, dose: 400.0 mg/kg/injection, schedule: Q01DX009 (ip), vehicle: saline with Tween-80.
The mark [10] stands for this setting: T/C endpoint: mean survival time, dose: 200.0 mg/kg/injection, schedule: Q01DX001 (ip), vehicle: saline.
Setting [11] is: T/C endpoint: mean survival time, dose: 400.0 mg/kg/injection, schedule: Q01DX001 (ip), vehicle: saline.

The list does not hold the whole screen: it gathers tests that were run many times, whatever their T/C, doses with no T/C, and many T/C values between a quarter and a half above the control. Other doses and runs of a compound stand elsewhere. T/C is the treated group as % of the vehicle group. Some doses have a count of surviving animals in place of a T/C: the source holds a T/C of zero for them, seemingly a mark for toxic or unscored doses. Some doses without a T/C left all or most animals alive at the check, yet need not have been tolerated: survival well below the control is almost never listed, so the zero probably covers shortened survival too. Survivors were counted at the toxicity check, usually on the fifth day, unless a day is given; later deaths do not show. Schedules are NCI's codes, read here as Q, the interval in days (D) or hours (H), X, the number of doses. Some doses were run more than once; their values stand side by side, smallest first. Some structures stand for samples that the source files as different forms (salt, stereo form or complex); doses refer to the form tested. Where survival is the endpoint, this PubChem deposit counts one and a half times the control or more as active, and values a quarter to a half above the control carry no call in these data; other NCI protocols may use other cut-offs. Some T/C values are followed by the survivors on the day toxicity was checked, most often the fifth; without a count, all were alive then.

On to `CN(C)C=Nc1cccc2[nH]c3ccccc3c12`, for which the survivor count is 1 of 6 under setting [1] and 1 of 6 under setting [2].
`COc1cc2c(cc1OC)C13CCN4CC5=CCOC6CC(=O)N2C1C6C5CC43` (stereo not drawn) (tested in a mixture with another compound): the survivor count is reported as 0 of 6 under setting [3]; 0 of 6 (T/C endpoint: mean survival time, dose: 200.0 mg/kg/injection, schedule: Q01DX009 (ip), vehicle: saline); 0 of 6 under setting [2]; 0 of 6 (T/C endpoint: mean survival time, dose: 400.0 mg/kg/injection, schedule: Q01DX009 (ip), vehicle: saline).
For `COC(=O)Nc1nc2ccc(SC)cc2c(=O)[nH]1`, the survivor count (T/C endpoint: median survival time, dose: 400.0 mg/kg/injection, schedule: Q01DX009 (ip), vehicle: Klucel (hydroxypropylcellulose) (HPC)) is given as 4 of 6.
For the molecule `O=[n+]1c2ccccc2n([O-])c2ccccc21.[Cl][Ni][Cl]`, under setting [4], the survivor count is reported as 5 of 6.
As to `CCCCCCCCCCCCOP(OCC)OCCCCCCCCCCCC`, the survivor count is on record as 0 of 3 (T/C endpoint: mean survival time, dose: 200.0 mg/kg/injection, schedule: Q04DX002 (ip), vehicle: saline with Tween-80) and 2 of 3 under setting [5].
For the molecule `COc1cccc(N2CCN(CC(O)COc3ccc(N)cc3)CC2)c1` (stereo not drawn), the survivor count (T/C endpoint: mean survival time, dose: 100.0 mg/kg/injection, schedule: Q04DX002 (ip), vehicle: other) is 0 of 3; the survivor count (T/C endpoint: mean survival time, dose: 200.0 mg/kg/injection, schedule: Q04DX002 (ip), vehicle: other) is 0 of 3; the survivor count (T/C endpoint: mean survival time, dose: 400.0 mg/kg/injection, schedule: Q04DX002 (ip), vehicle: other) is on record as 0 of 3.
On to `Cn1cnc([N+](=O)[O-])c1S(=O)(=O)NCN1CCOCC1`, for which the survivor count runs as follows: (T/C endpoint: mean survival time, dose: 100.0 mg/kg/injection, schedule: Q01DX009 (ip), vehicle: Klucel (hydroxypropylcellulose) (HPC)) 4 of 6; (T/C endpoint: mean survival time, dose: 200.0 mg/kg/injection, schedule: Q01DX009 (ip), vehicle: Klucel (hydroxypropylcellulose) (HPC)) 0 of 6 and 1 of 6; (T/C endpoint: mean survival time, dose: 400.0 mg/kg/injection, schedule: Q01DX009 (ip), vehicle: Klucel (hydroxypropylcellulose) (HPC)) 0 of 6.
In the case of `O=C1NCCN1c1ncc([N+](=O)[O-])s1`, the survivor count under setting [1] is 3 of 6.
With `CC/C(=C/c1ccc2c(c1)OCO2)[N+](=O)[O-]`, the survivor count under setting [3] was 0 of 6 and the survivor count under setting [2] was 0 of 6.
Turning to `COc1ccc2c(c1)c(C#N)cc[n+]2C`, the survivor count is, setting by setting: (T/C endpoint: mean survival time, dose: 25.0 mg/kg/injection, schedule: Q01DX009 (ip), vehicle: saline with Tween-80) 1 of 6; (T/C endpoint: mean survival time, dose: 50.0 mg/kg/injection, schedule: Q04DX003 (ip), vehicle: saline with Tween-80) 4 of 6; (T/C endpoint: mean survival time, dose: 100.0 mg/kg/injection, schedule: Q04DX003 (ip), vehicle: saline with Tween-80) 0 of 6; under setting [6], 0 of 6; under setting [7], 0 of 6.
As for `C1CCC2CCCN2CC1` (stereo not drawn), the survivor count under setting [8] was 3 of 6.
For the molecule `NS(=O)(=O)c1cc([N+](=O)[O-])ccc1Cl`, under setting [9], the survivor count is 1 of 6.
On to `COC(=O)c1ccc(=O)c2nc3/c(=C/O)c(O)cc(=O)c3[nH]c12`, for which, for the setting “T/C endpoint: mean survival time, dose: 20.0 mg/kg/injection, schedule: Q04DX003 (ip), vehicle: saline with Tween-80”, the survivor count was 3 of 6.
As to `CC1=CCCN(CCc2c[nH]c3ccccc23)C1`, the survivor count was 1 of 6 under setting [6] and 0 of 6 under setting [2].
For the molecule `CCc1ccc(CC)c(CC)c1CC`, the survivor count under setting [7] was 2 of 6.
Take `CO[C@@]12[C@@H]3N[C@@H]3CN1C1=C(C(=O)C(N3CCCC3)=C(C)C1=O)[C@@H]2COC(N)=O`: the T/C (T/C endpoint: median survival time, dose: 6.0 mg/kg/injection, schedule: Q01DX001 (ip), vehicle: saline with Tween-80) was 133 and 139 % of control.
In the case of `CC(Cl)(C(Cl)Cl)C(F)(F)F` (stereo not drawn), the survivor count reads like this: under setting [10], 0 of 6; under setting [11], 0 of 6.
With `CN(C)CC(N)C(=O)O` (stereo not drawn), the survivor count (T/C endpoint: mean survival time, dose: 25.0 mg/kg/injection, schedule: Q04DX002 (ip), vehicle: saline) is reported as 3 of 3.
Consider `Clc1cc2n[nH]nc2c(Cl)n1`, for which the survivor count was 1 of 6 (T/C endpoint: mean survival time, dose: 200.0 mg/kg/injection, schedule: Q01DX009 (ip), vehicle: water) and 0 of 6 (T/C endpoint: mean survival time, dose: 400.0 mg/kg/injection, schedule: Q01DX009 (ip), vehicle: water).
Turning to `Ic1cccs1`, the survivor count was 2 of 4 under setting [10] and 0 of 4 under setting [11].
For `O=C1C=CC(=Nc2ccc(Cl)cc2)O1`, the survivor count under setting [6] is 2 of 6.
Regarding `CCCCCCCCCC[Se]C#N`, the survivor count is 1 of 4 (T/C endpoint: mean survival time, dose: 100.0 mg/kg/injection, schedule: Q01DX001 (ip), vehicle: saline); 0 of 4 under setting [10]; 0 of 4 under setting [11].
For the molecule `CCn1cnc2c(=S)nc[nH]c21`, the T/C is, setting by setting: (T/C endpoint: mean survival time, dose: 18.8 mg/kg/injection, schedule: Q03HX024 (ip), vehicle: saline) 126 % of control; (T/C endpoint: mean survival time, dose: 30.0 mg/kg/injection, schedule: Q03HX008 (ip), vehicle: saline) 131 % of control; (T/C endpoint: mean survival time, dose: 37.5 mg/kg/injection, schedule: Q03HX016 (ip), vehicle: saline) 135 % of control; (T/C endpoint: mean survival time, dose: 60.0 mg/kg/injection, schedule: Q01DX009 (ip), vehicle: saline) 140 % of control; (T/C endpoint: mean survival time, dose: 75.0 mg/kg/injection, schedule: Q01DX007 (ip), vehicle: saline) 141 % of control; (T/C endpoint: mean survival time, dose: 75.0 mg/kg/injection, schedule: Q01DX009 (ip), vehicle: saline) 138 % of control. The T/C is 148 % of control (T/C endpoint: mean survival time, dose: 90.0 mg/kg/injection, schedule: Q03HX008 (ip), vehicle: saline); 127 % of control (T/C endpoint: mean survival time, dose: 150.0 mg/kg/injection, schedule: Q08DX002 (ip), vehicle: saline); 145 % of control (T/C endpoint: mean survival time, dose: 300.0 mg/kg/injection, schedule: Q01DX001 (ip), vehicle: saline); 126 % of control (T/C endpoint: mean survival time, dose: 300.0 mg/kg/injection, schedule: Q03DX003 (ip), vehicle: saline); 138 % of control (T/C endpoint: mean survival time, dose: 300.0 mg/kg/injection, schedule: Q04DX003 (ip), vehicle: saline); 145 % of control [7 of 10 alive] (T/C endpoint: mean survival time, dose: 600.0 mg/kg/injection, schedule: Q01DX001 (ip), vehicle: saline). Also, the T/C by setting is: under setting [4], 149 % of control; (T/C endpoint: median survival time, dose: 62.5 mg/kg/injection, schedule: Q01DX009 (ip), vehicle: saline) 137 % of control. The survivor count is given as 5 of 10 (T/C endpoint: mean survival time, dose: 240.0 mg/kg/injection, schedule: Q01DX009 (ip), vehicle: saline); 3 of 6 (T/C endpoint: mean survival time, dose: 300.0 mg/kg/injection, schedule: Q01DX007 (ip), vehicle: saline); 3 of 6 (T/C endpoint: mean survival time, dose: 300.0 mg/kg/injection, schedule: Q01DX009 (ip), vehicle: saline); 3 of 6 (T/C endpoint: median survival time, dose: 125.0 mg/kg/injection, schedule: Q01DX009 (ip), vehicle: saline); 4 of 6 (T/C endpoint: median survival time, dose: 250.0 mg/kg/injection, schedule: Q01DX009 (ip), vehicle: saline).
For the molecule `Nc1cccc(C(=O)O)c1C(=O)O`, the survivor count reads like this: under setting [8], 6 of 6; (T/C endpoint: mean survival time, dose: 100.0 mg/kg/injection, schedule: Q01DX009 (ip), vehicle: saline with Tween-80) 3 of 6 and 5 of 6; under setting [1], 3 of 6; under setting [9], 0 of 6.
`O=C1C2=Cc3ccccc3CN2Cc2ccccc21`: the survivor count (T/C endpoint: mean survival time, dose: 300.0 mg/kg/injection, schedule: Q01DX001 (ip), vehicle: other) was 4 of 6.
Take `COc1ccc(-c2cc(C(=O)O)c3cccc(C)c3n2)cc1`: the survivor count under setting [7] is 0 of 6.
`COC(=O)/C([O-])=C(\C(=O)OC)[n+]1cc(Br)cc2ccccc21`: under setting [5], the survivor count is given as 1 of 3.
